According to patent US7585886B2, “Pyrrolidine derivative or salt thereof” (Astellas Pharma Inc., priority 2005, dated 2009):
The match of structure and compound is tentative. Marks after values point to notes of the source that are not given here.

Protein sequences, listed by entry. Tags and fused reporters are not part of them. Residues count along the entry.
UniProt P41180, 20-1078 limits assumed: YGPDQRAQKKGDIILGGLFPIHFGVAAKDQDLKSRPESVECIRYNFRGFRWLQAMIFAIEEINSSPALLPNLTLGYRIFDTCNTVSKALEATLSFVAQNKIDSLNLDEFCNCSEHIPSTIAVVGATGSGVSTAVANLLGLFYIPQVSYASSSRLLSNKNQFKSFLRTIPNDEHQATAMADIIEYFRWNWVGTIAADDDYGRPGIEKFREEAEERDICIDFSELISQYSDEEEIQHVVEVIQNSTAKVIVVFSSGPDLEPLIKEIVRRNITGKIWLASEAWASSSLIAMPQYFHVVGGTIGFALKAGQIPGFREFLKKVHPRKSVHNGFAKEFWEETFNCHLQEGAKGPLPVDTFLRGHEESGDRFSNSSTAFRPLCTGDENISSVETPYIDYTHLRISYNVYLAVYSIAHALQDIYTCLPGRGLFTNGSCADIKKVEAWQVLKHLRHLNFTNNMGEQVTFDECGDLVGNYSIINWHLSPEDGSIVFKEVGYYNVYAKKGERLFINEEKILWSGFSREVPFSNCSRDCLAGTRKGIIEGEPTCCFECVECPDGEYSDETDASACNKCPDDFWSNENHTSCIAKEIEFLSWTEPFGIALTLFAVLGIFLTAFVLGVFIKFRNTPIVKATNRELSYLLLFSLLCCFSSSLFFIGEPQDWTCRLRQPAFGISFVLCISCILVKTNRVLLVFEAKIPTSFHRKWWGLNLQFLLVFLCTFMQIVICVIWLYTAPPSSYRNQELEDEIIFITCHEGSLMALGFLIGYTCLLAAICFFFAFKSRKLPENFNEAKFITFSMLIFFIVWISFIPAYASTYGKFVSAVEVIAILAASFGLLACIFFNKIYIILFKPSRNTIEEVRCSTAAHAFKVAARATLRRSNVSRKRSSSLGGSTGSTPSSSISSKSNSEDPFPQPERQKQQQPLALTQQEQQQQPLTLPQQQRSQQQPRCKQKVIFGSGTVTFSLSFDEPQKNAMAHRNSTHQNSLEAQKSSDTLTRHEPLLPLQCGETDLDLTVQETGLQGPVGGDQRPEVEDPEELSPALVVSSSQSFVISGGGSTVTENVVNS

Experiments:
human CaSR = human CaSR (Homo sapiens, UniProt P41180); experiment: Human calcium sensing receptor (CaSR) agonistic activity test (FLIPR, Fluo-3 intracellular Ca2+); details: read-out: EC50 (compound concentration showing 50% activity), human CaSR agonistic activity; HEK 293 cell stably expressing human CaSR; 0.5 mM Ca2+ buffer; solvent group 0%, 2 mM Ca2+ group 100%; tested form: HCl
Source text: Test 1. Human Calcium Sensing Receptor (CaSR) Agonistic Activity Test
• 1) Preparation of Human CaSR Expression Vector
A DNA fragment coding for human CaSR was cloned in the standard method. Illustratively, using 203 to 2387 of NM_000388 as a DNA fragment D4, and 2210 to 3633 as a DNA fragment B2, they were amplified using a human kidney cDNA (mfd. by Invitrogen) as the template and using a DNA polymerase (a registered trade name: Pyrobest, mfd. by Takara Bio), and respectively cloned into a pCR2.1 vector using a pCR2.1-Topo vector (mfd. by Invitrogen). Next, DNA fragments prepared by digesting pCR2.1-D4 with SpeI and XbaI were inserted into the same sites of pcDNA3.1/Zeo(+) vector. Successively, the fragments prepared by digesting pCR2.1-B2 with SacI and XbaI were inserted into the SacI and XbaI sites of previously prepared pcDNA3.1/Zeo(+)-D4 (SpeI-XbaI), thereby obtaining a human CaSR expression vector pcDNA3.1/Zeo(+)-hCaSR in which human CaSR open reading frame (ORF) was contained in the pcDNA3.1/Zeo(+) vector. • 2) Preparation of Human CaSR Expression Cell […]
The HEK 293 cell stably expressing human CaSR was inoculated into a poly-D-lysine-coated black clear bottom 96 well plate (mfd. by BD Bioscience). […] In this connection, the compound to be evaluated was used by optionally diluting with the washing buffer supplemented with 0.5 mM Ca^2+. […]

[1] = Measurement of rat plasma calcium concentration after single oral administration; details: normal male rats, 1 mg/kg oral administration, tested form: HCl
Protocol: Test 2. Measurement of Rat Plasma Calcium Concentration and Plasma PTH Concentration
The compounds of the invention were administered to rats, and their influences upon the plasma calcium concentration and plasma PTH concentration were examined. The test was carried out by single oral administration of the compounds 5 or 6 normal male rats.
As a vehicle group, an MC solution prepared by adding 0.5% methyl cellulose (MC) solution or ethanol to a final concentration of 5% was administered at a dose of 5 ml/kg. As the comparative control, cinacalcet was dissolved in the MC solution and administered at a dose of 3 mg/kg. Each of the compounds, of the invention was dissolved or suspended the MC solution, or dissolved in ethanol and then diluted with the MC solution as occasion demands, and administered at a dose of 1, 3 or 10 mg/kg.
Blood samples were collected from the orbital venous plexus under ether anesthesia before the administration and 2Hours, 4Hours, or 8Hours in some cases, after the administration, and the plasma calcium concentration was measured using Calcium E-Test Wako (mfd. by Wako Pure Chemical Industries), and the plasma PTH concentration using Rat Intact PTH ELISA Kit (mfd. by Immutopics) or Rat Bioactive Intact PTH ELISA Kit (mfd. by Immutopics).

- EC50 (human CaSR): 6.9 nM
Structure (SMILES): C[C@@H](NC[C@H]1CN(c2ccc(C(=O)O)cc2)C[C@@H]1c1ccccc1)c1cccc2ccccc12
- Rat plasma calcium concentration reducing ratio (%) 4 hours after administration [1]: 20* %
